Laboratory results reported in patent US20130129725A1.
Results are given in words; binding and its absence hold for the method and conditions named. Some results given as binding are weak or reduced against the parent protein; the word gives no strength.

Protein sequences, listed by entry. Tags and fused reporters are not part of them. Lines headed by an entry give the natural chain unless they say otherwise; changes in a name come on top.
UniProt P11362: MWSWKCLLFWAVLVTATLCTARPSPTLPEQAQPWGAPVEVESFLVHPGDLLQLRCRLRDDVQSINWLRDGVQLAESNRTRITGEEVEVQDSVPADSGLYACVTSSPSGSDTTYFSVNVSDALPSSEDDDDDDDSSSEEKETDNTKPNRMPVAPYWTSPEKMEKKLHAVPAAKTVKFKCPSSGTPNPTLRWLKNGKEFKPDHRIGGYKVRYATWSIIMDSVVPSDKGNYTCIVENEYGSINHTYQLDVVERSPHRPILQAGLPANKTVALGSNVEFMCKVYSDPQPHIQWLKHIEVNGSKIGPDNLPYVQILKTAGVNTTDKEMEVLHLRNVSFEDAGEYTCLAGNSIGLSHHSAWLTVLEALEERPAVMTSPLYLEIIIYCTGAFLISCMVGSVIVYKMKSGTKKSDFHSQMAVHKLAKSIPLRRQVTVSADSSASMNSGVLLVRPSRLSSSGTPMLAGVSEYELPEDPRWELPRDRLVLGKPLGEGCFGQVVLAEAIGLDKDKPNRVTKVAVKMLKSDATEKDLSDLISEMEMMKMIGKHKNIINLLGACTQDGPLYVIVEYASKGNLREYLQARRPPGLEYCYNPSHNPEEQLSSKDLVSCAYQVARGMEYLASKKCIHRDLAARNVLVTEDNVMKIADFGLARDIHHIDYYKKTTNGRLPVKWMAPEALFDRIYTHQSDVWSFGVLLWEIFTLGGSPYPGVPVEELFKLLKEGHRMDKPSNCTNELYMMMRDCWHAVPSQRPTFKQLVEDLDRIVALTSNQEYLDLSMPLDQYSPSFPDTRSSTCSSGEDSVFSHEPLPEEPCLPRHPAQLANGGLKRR
UniProt Q9NSA1: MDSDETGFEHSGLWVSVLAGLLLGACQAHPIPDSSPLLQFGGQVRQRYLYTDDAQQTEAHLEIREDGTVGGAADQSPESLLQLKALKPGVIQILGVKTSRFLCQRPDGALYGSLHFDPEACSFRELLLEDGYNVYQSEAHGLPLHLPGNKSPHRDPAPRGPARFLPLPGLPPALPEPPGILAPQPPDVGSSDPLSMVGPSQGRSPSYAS

Experiments:
[1] = target: FGF21R (FGFR1c and β-Klotho) on transfected AM1 CHO or 293T cells (human) (UniProt P11362); experiment: flow cytometry on cells used as immunogen (FIG. 3)
[2] = target: FGF21R (FGFR1c and β-Klotho) on transfected AM1 CHO or 293T cells (human) (UniProt P11362); experiment: flow cytometry on FGFR1c/β-Klotho transfected AM1 CHO or 293T cells

binding [1]: binds
binding [2]: binds
Substance: Alexa 647-labeled FGF21 (from UniProt Q9NSA1 29-209) (ligand)
